Among all 300,000 compounds or so, about 5,400 (1.8%) were called active. Inconclusive means that the source gave no clear call. Such entries were picked first, then a sample of the others. Calls follow the shape of the full dose curve; tested in HEK293 cells. A potency beside an inconclusive call is a rough fit, not a confirmed value.
Experiment: qHTS for inhibitors of binding or entry into cells for Marburg Virus
Conditions: Marburg virus pseudotyped entry inhibition, cell reporter; activity change, negative = inhibition: at 37.8 µM (top of the series) unless noted
With CCN(CC)C(=O)NC(c1ccc(C)c(F)c1)C(Cl)(Cl)Cl (stereo not given) the Potency was inconclusive: 31.6 µM [inhibitor, partial curve, poor fit].
With CC(C)(C)NC(=O)Nc1ccccc1C(N)=O the “activity change, negative = inhibition” value was inactive: 19.2%.
For CCCC(=O)N1CCN(c2ccc(NC(=S)NC(=O)c3cccc(C)c3)cc2)CC1, the Potency was inconclusive: 20 µM [inhibitor, partial curve, poor fit].
For Fc1ccc2nncc(SCc3ccccc3Cl)c2c1, the “activity change, negative = inhibition” value was inactive: 3% [at 46.1 µM].
For COc1ccc(OCC(=O)Nc2cccc(C(C)=O)c2)cc1, the “activity change, negative = inhibition” value was inactive: 3.07% [at 46.1 µM].
For Clc1cccc(Cl)c1CON/C=N/c1ncnc2sccc12, the Potency was inconclusive: 35.5 µM [inhibitor, single point].
For Cc1cccc(C(=O)NNC(=O)C(=O)NC(C)(C)C)c1, the “activity change, negative = inhibition” value was inactive: -2.31% [at 46.1 µM].
With Cc1ccc(C2C3=C(CC(C)(C)CC3=O)N(CCN3CCOCC3)C3=C2C(=O)CC(C)(C)C3)cc1 the Potency was “inactive”.
With N#Cc1ccc(OCC(O)CS(=O)(=O)c2ccc(F)cc2)cc1 (stereo not given) the “activity change, negative = inhibition” value was inactive: 1.95% [at 46.1 µM].
With O=C(N/N=C\c1cccc(OC(=O)c2ccco2)c1)c1ccc2c(c1)OCO2 the Potency was inconclusive: 0.708 µM [inhibitor, full curve, poor fit].
In the case of COc1ccc2nc(NC3=NCCC3)sc2c1, the Potency is reported as inconclusive: 1.41 µM [activator, full curve, poor fit].
For Cn1c(CCNC(=O)c2ccco2)nc2cc(NC(=O)COc3ccc(Cl)cc3)ccc21, the “activity change, negative = inhibition” value was inactive: -1.8% [at 46.1 µM].
For COc1ccc(C(=O)c2ccc(N3CCOCC3)cc2)c(OC)c1, the Potency was inconclusive: 2.51 µM [inhibitor, full curve, poor fit].
In the case of Cc1cc(/C=N/NC(N)=S)c(C)n1-c1ccc(Cl)c(Cl)c1, the Potency is reported as inconclusive: 25.9 µM [inhibitor, single point].
With Cc1cccc(-n2c(CNC(=O)c3cccc([N+](=O)[O-])c3C)n[nH]c2=S)c1 the Potency was inconclusive: 1.58 µM [activator, partial curve, poor fit].
With Cc1ccc2nc(Cl)c(/C=N/NC(=O)c3ccccc3O)cc2c1 the Potency was inconclusive: 0.0891 µM [inhibitor, full curve, poor fit].
For CCCCN(C(=O)COC(=O)c1ccccc1)c1c(N)n(CCC)c(=O)[nH]c1=O, the Potency was inconclusive: 6.31 µM [inhibitor, single point].
In the case of CCCCn1c(N)c(Sc2ccc(Cl)cc2)c(=O)[nH]c1=O, the Potency is reported as inconclusive: 29.1 µM [inhibitor, single point].
With CCOC(=O)c1c(NC(=O)c2cc(-c3ccc(OC)cc3)on2)sc(C)c1C the “activity change, negative = inhibition” value was inactive: -13.9% [at 46.1 µM].
For COc1ccc(CCC(=O)Nc2sccc2C#N)cc1, the Potency was inconclusive: 3.16 µM [activator, partial curve, poor fit].

— PubChem BioAssay AID540276 (National Center for Advancing Translational Sciences (NCATS), 2011)
% is scaled to controls: 0 for no effect and ±100 for the full control effect; potency is read from the fitted curve at half-maximal effect.
